Results are given in words; binding and its absence hold for the method and conditions named. In cells and extracts the contact can be indirect. Binding can be weak; no strength is given. Sequences can lack the tags named with a protein.
Target: T1, SpoIVFB (B) catalytic mutant E44Q fused to GFP (B. subtilis) (UniProt P26937)
T1 sequence: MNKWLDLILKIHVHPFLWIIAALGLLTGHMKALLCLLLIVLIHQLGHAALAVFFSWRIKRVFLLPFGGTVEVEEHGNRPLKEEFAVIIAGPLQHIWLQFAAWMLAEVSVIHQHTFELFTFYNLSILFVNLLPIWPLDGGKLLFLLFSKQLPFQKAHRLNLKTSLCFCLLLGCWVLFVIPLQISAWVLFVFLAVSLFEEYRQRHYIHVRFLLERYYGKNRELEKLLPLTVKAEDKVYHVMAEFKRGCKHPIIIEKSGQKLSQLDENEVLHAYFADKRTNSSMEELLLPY
Experiment: co-IP; B(E44Q)-GFP immunoprecipitated with anti-GFP antibody resin from crude membranes solubilized with 0.5% digitonin, sporulating cells at hour 4 (IVB+ strain; ΔIVB and ΔsigK strains compared); 4 h at 4°C; SDS-PAGE with silver staining, MS of excised bands, anti-σ^K immunoblot

binding: binds
Substance: SpoIVFA (A)

From publication PMC6242693
